Measured values: publication PMC7919836
These are yes or no findings as the source states them, for the method shown. In cells and extracts the contact can be indirect. Some results given as binding are weak or reduced against the parent protein; the word gives no strength. Tags and fused reporters may be left off the sequences shown.

Chains of the proteins cited; added tags and fusions are not shown.
UniProt P51784: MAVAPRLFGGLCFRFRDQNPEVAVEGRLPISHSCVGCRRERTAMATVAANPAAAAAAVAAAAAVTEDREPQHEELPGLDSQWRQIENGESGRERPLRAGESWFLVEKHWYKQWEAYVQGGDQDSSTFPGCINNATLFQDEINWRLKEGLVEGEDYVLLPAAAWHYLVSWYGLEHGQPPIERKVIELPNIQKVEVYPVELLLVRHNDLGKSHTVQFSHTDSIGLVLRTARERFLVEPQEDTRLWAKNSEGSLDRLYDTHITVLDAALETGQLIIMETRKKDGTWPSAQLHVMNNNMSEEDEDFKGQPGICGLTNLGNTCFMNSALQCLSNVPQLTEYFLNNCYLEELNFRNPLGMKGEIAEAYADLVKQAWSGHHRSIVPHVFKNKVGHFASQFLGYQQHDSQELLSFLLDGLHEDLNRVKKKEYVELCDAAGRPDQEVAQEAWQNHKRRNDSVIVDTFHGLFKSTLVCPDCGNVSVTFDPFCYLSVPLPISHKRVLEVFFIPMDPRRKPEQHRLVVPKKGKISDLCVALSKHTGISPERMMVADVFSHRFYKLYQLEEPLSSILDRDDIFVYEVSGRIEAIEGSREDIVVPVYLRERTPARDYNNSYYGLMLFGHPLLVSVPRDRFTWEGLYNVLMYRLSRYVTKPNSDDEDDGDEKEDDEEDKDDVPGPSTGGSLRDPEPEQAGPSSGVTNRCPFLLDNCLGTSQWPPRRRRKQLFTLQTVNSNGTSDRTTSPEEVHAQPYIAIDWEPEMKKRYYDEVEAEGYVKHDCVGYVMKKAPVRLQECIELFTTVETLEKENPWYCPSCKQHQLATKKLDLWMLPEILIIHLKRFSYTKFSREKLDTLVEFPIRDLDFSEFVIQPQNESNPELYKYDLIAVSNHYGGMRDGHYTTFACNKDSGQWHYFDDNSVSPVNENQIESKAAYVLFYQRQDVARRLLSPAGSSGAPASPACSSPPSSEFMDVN

Key:
Experiment in all cases: pull-down; SFB-tagged DUB (or OTUD6A full length or truncated) and MYC-tagged Aurora-A (full length or truncated) co-transfected into HEK293T; lysis in NETN buffer; DUB pulled down with S-protein beads at 4 °C overnight; Aurora-A blotted with MYC antibody
[1] = target: T1, SFB-tagged OTUD6A, full-length wild type (aa 1-288) (human) (UniProt Q7L8S5)
T1 sequence: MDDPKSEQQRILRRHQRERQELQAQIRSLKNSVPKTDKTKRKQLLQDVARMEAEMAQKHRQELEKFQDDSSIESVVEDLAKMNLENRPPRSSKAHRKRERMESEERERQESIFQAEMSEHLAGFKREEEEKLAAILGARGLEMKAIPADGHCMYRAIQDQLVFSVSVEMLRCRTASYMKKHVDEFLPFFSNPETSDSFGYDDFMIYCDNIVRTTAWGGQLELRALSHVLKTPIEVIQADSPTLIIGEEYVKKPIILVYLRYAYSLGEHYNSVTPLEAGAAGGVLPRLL

[2] = target: T2, SFB-tagged OTUD7A (human) (UniProt Q8TE49)
T2 sequence: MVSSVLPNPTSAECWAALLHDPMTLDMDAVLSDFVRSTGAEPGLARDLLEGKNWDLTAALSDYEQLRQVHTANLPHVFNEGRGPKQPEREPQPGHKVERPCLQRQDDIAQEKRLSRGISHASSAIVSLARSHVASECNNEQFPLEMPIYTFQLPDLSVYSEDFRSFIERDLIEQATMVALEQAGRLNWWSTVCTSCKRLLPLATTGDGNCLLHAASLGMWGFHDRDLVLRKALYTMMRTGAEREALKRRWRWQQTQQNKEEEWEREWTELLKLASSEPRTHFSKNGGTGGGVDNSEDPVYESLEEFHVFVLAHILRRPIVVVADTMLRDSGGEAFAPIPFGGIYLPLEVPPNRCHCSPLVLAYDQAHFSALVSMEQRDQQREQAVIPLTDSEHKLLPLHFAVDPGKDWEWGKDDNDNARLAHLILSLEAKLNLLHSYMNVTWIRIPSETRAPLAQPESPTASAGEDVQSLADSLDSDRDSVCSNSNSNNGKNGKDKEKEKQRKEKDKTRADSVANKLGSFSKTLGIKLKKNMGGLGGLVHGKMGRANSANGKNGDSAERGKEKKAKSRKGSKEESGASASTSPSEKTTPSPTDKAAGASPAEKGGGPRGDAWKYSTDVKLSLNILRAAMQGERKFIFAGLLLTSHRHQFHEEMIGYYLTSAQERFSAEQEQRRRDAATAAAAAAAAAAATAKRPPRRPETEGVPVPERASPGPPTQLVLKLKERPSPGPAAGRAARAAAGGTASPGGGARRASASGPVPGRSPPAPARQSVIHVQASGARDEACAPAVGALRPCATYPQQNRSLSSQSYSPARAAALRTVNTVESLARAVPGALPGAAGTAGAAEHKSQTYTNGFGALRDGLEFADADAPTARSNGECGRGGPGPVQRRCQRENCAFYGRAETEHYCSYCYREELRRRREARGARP

SFB-tagged USP11 (human) = SFB-tagged USP11 (human) (UniProt P51784)
SFB-tagged USP42 (human) = target: T3, SFB-tagged USP42 (human) (UniProt Q9H9J4)
T3 sequence: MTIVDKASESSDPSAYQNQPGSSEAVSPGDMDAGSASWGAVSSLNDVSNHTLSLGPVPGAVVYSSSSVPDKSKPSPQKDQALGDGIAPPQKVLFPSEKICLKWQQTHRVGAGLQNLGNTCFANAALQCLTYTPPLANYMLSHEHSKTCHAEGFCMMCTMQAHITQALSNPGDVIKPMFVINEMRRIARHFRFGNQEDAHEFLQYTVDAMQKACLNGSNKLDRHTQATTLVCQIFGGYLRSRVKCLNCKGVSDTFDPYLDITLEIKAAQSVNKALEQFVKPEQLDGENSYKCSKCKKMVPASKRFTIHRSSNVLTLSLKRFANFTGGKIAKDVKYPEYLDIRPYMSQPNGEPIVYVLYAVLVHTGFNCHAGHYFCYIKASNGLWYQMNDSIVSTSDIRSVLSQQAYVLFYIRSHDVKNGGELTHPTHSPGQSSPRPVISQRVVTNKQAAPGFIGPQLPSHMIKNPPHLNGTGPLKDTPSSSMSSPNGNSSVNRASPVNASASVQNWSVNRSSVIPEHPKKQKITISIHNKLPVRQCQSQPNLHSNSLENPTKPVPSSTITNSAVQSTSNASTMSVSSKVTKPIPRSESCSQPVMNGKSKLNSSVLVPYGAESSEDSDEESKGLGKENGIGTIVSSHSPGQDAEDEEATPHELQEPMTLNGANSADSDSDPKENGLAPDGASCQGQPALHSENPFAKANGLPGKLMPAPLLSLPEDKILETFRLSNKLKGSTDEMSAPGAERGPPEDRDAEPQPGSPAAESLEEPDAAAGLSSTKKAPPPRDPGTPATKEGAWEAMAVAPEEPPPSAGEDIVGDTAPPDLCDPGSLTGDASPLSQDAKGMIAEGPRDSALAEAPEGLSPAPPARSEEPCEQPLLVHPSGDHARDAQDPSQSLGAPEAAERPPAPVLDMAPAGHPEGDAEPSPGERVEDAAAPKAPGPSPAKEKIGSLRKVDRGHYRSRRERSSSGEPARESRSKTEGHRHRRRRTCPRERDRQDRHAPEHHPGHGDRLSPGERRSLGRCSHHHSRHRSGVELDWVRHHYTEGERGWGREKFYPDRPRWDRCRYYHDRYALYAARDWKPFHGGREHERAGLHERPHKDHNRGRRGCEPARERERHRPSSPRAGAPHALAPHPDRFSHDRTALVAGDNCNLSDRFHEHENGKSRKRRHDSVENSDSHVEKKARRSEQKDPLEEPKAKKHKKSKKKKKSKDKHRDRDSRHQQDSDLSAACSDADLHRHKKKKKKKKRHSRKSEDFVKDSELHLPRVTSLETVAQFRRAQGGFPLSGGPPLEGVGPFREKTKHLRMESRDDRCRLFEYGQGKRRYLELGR

Measured: binding

B1: MYC-tagged Aurora kinase A, full-length wild type (aa 1-403) (protein, UniProt O14965 1-403)
chain: MDRSKENCISGPVKATAPVGGPKRVLVTQQFPCQNPLPVNSGQAQRVLCPSNSSQRIPLQAQKLVSSHKPVQNQKQKQLQATSVPHPVSRPLNNTQKSKQPLPSAPENNPEEELASKQKNEESKKRQWALEDFEIGRPLGKGKFGNVYLAREKQSKFILALKVLFKAQLEKAGVEHQLRREVEIQSHLRHPNILRLYGYFHDATRVYLILEYAPLGTVYRELQKLSKFDEQRTATYITELANALSYCHSKRVIHRDIKPENLLLGSAGELKIADFGWSVHAPSSRRTTLCGTLDYLPPEMIEGRMHDEKVDLWSLGVLCYEFLVGKPPFEANTYQETYKRISRVEFTFPDFVTEGARDLISRLLKHNPSQRPMLREVLEHPWITANSSKPSNCQNKESASKQS
binds: all assays above
